No constants are given. Whether binding was seen depends on the method and setting. Binding seen in cells or lysates may run through a third protein.
Molecular target: hypoxia-inducible factor-1α (human (endogenous in HK-2)), Q16665
Experiment: co-IP; HK-2 cell extracts after 16 h in nutrient-replete or nutrient-deficient conditions with or without 200 μM CoCl2; HIF-1α immunoprecipitated overnight at 4 °C, Protein G Sepharose, one wash with HEPES-buffered saline (150 mM NaCl; 10 mM HEPES, pH 7.4); immunoblots for NRF2 and HIF-1α
Conditions: remark: other sources report otherwise

B1: nuclear factor erythroid-2-related factor 2, Q16236 1-605 (protein)
chain: MMDLELPPPGLPSQQDMDLIDILWRQDIDLGVSREVFDFSQRRKEYELEKQKKLEKERQEQLQKEQEKAFFAQLQLDEETGEFLPIQPAQHIQSETSGSANYSQVAHIPKSDALYFDDCMQLLAQTFPFVDDNEVSSATFQSLVPDIPGHIESPVFIATNQAQSPETSVAQVAPVDLDGMQQDIEQVWEELLSIPELQCLNIENDKLVETTMVPSPEAKLTEVDNYHFYSSIPSMEKEVGNCSPHFLNAFEDSFSSILSTEDPNQLTVNSLNSDATVNTDFGDEFYSAFIAEPSISNSMPSPATLSHSLSELLNGPIDVSDLSLCKAFNQNHPESTAEFNDSDSGISLNTSPSVASPEHSVESSSYGDTLLGLSDSEVEELDSAPGSVKQNGPKTPVHSSGDMVQPLSPSQGQSTHVHDAQCENTPEKELPVSPGHRKTPFTKDKHSSRLEAHLTRDELRAKALHIPFPVEKIINLPVVDFNEMMSKEQFNEAQLALIRDIRRRGKNKVAAQNCRKRKLENIVELEQDLDHLKDEKEKLLKEKGENDKSLHLLKKQLSTLYLEVFSMLRDEDGKPYSPSEYSLQQTRDGNVFLVPKSKKPDVKKN
In the case of B1, the binding is reported as “no binding”.

Reference: publication PMC9495756
